Experimental data taken from publication PMC12808100, “The non-catalytic DNA polymerase ε subunit is an NPF motif recognition protein” (Nature Communications, 2025).

B1: WDHD1, endogenous (protein, UniProt O75717 1-1129)
chain: MPATRKPMRYGHTEGHTEVCFDDSGSFIVTCGSDGDVRIWEDLDDDDPKFINVGEKAYSCALKSGKLVTAVSNNTIQVHTFPEGVPDGILTRFTTNANHVVFNGDGTKIAAGSSDFLVKIVDVMDSSQQKTFRGHDAPVLSLSFDPKDIFLASASCDGSVRVWQISDQTCAISWPLLQKCNDVINAKSICRLAWQPKSGKLLAIPVEKSVKLYRRESWSHQFDLSDNFISQTLNIVTWSPCGQYLAAGSINGLIIVWNVETKDCMERVKHEKGYAICGLAWHPTCGRISYTDAEGNLGLLENVCDPSGKTSSSKVSSRVEKDYNDLFDGDDMSNAGDFLNDNAVEIPSFSKGIINDDEDDEDLMMASGRPRQRSHILEDDENSVDISMLKTGSSLLKEEEEDGQEGSIHNLPLVTSQRPFYDGPMPTPRQKPFQSGSTPLHLTHRFMVWNSIGIIRCYNDEQDNAIDVEFHDTSIHHATHLSNTLNYTIADLSHEAILLACESTDELASKLHCLHFSSWDSSKEWIIDLPQNEDIEAICLGQGWAAAATSALLLRLFTIGGVQKEVFSLAGPVVSMAGHGEQLFIVYHRGTGFDGDQCLGVQLLELGKKKKQILHGDPLPLTRKSYLAWIGFSAEGTPCYVDSEGIVRMLNRGLGNTWTPICNTREHCKGKSDHYWVVGIHENPQQLRCIPCKGSRFPPTLPRPAVAILSFKLPYCQIATEKGQMEEQFWRSVIFHNHLDYLAKNGYEYEESTKNQATKEQQELLMKMLALSCKLEREFRCVELADLMTQNAVNLAIKYASRSRKLILAQKLSELAVEKAAELTATQVEEEEEEEDFRKKLNAGYSNTATEWSQPRFRNQVEEDAEDSGEADDEEKPEIHKPGQNSFSKSTNSSDVSAKSGAVTFSSQGRVNPFKVSASSKEPAMSMNSARSTNILDNMGKSSKKSTALSRTTNNEKSPIIKPLIPKPKPKQASAASYFQKRNSQTNKTEEVKEENLKNVLSETPAICPPQNTENQRPKTGFQMWLEENRSNILSDNPDFSDEADIIKEGMIRFRVLSTEERKVWANKAKGETASEGTEAKKRKRVVDESDETENQEEKAKENLNLSKKQKPLDFSTNQKLSAFAFKQE
B2: PYCR1, endogenous (protein, UniProt P32322 1-319)
chain: MSVGFIGAGQLAFALAKGFTAAGVLAAHKIMASSPDMDLATVSALRKMGVKLTPHNKETVQHSDVLFLAVKPHIIPFILDEIGADIEDRHIVVSCAAGVTISSIEKKLSAFRPAPRVIRCMTNTPVVVREGATVYATGTHAQVEDGRLMEQLLSSVGFCTEVEEDLIDAVTGLSGSGPAYAFTALDALADGGVKMGLPRRLAVRLGAQALLGAAKMLLHSEQHPGQLKDNVSSPGGATIHALHVLESGGFRSLLINAVEASCIRTRELQSMADQEQVSPAAIKKTILDKVKLDSPAGTALSPSGHTKLLPRSLAPAGKD
B3: GLB1, endogenous (protein, UniProt P16278 29-677)
chain: QRMFEIDYSRDSFLKDGQPFRYISGSIHYSRVPRFYWKDRLLKMKMAGLNAIQTYVPWNFHEPWPGQYQFSEDHDVEYFLRLAHELGLLVILRPGPYICAEWEMGGLPAWLLEKESILLRSSDPDYLAAVDKWLGVLLPKMKPLLYQNGGPVITVQVENEYGSYFACDFDYLRFLQKRFRHHLGDDVVLFTTDGAHKTFLKCGALQGLYTTVDFGTGSNITDAFLSQRKCEPKGPLINSEFYTGWLDHWGQPHSTIKTEAVASSLYDILARGASVNLYMFIGGTNFAYWNGANSPYAAQPTSYDYDAPLSEAGDLTEKYFALRNIIQKFEKVPEGPIPPSTPKFAYGKVTLEKLKTVGAALDILCPSGPIKSLYPLTFIQVKQHYGFVLYRTTLPQDCSNPAPLSSPLNGVHDRAYVAVDGIPQGVLERNNVITLNITGKAGATLDLLVENMGRVNYGAYINDFKGLVSNLTLSSNILTDWTIFPLDTEDAVRSHLGGWGHRDSGHHDEAWAHNSSNYTLPAFYMGNFSIPSGIPDLPQDTFIQFPGWTKGQVWINGFNLGRYWPARGPQLTLFVPQHILMTSAPNTITVLELEWAPCSSDDPELCAVTFVDRPVIGSSVTYDHPSKPVEKRLMPPPPQKNKDSWLDHV
B4: Protein downstream neighbor of Son (DONSON), endogenous (protein, UniProt Q9NYP3 1-566)
chain: MALSVPGYSPGFRKPPEVVRLRRKRARSRGAAASPPRELTEPAARRAALVAGLPLRPFPAAGGRGGGSGGGPAAARRNPFARLDNRPRVAAEPPDGPAREQPEAPVPFLDSNQENDLLWEEKFPERTTVTELPQTSHVSFSEPDIPSSKSTELPVDWSIKTRLLFTSSQPFTWADHLKAQEEAQGLVQHCRATEVTLPKSIQDPKLSSELRCTFQQSLIYWLHPALSWLPLFPRIGADRKMAGKTSPWSNDATLQHVLMSDWSVSFTSLYNLLKTKLCPYFYVCTYQFTVLFRAAGLAGSDLITALISPTTRGLREAMRNEGIEFSLPLIKESGHKKETASGTSLGYGEEQAISDEDEEESFSWLEEMGVQDKIKKPDILSIKLRKEKHEVQMDHRPESVVLVKGINTFTLLNFLINSKSLVATSGPQAGLPPTLLSPVAFRGATMQMLKARSVNVKTQALSGYRDQFSLEITGPIMPHSLHSLTMLLKSSQSGSFSAVLYPHEPTAVFNICLQMDKVLDMEVVHKELTNCGLHPNTLEQLSQIPLLGKSSLRNVVLRDYIYNWRS

Experiments:
[1] = molecular target: C-terminally MAC3-tagged POLE2 Y311F (human) (UniProt P56282); experiment: proximity labelling; C-terminally MAC3-tagged (ultraID) POLE2 variants in Flp-In T-REx 293 cells, tetracycline 24 h, 50 μM biotin 3 h; Strep-Tactin purification, mass spectrometry, SAINTexpress against GFP control
[2] = molecular target: C-terminally MAC3-tagged POLE2, wild type (human) (UniProt P56282); experiment: as above
[3] = molecular target: His6-AviTag-MBP-TEV-POLE2 (human) (UniProt P56282); experiment: native holdup (nHU) with mass spectrometry; single point; biotinylated His6-avi-MBP-POLE2 bait on streptavidin resin at 26 μM, His6-avi-MBP as control; Jurkat extract, 4 °C, 2 h; label-free MS of the supernatant; apparent; only the target purified
[4] = molecular target: C-terminally MAC3-tagged POLE2 E520A (human) (UniProt P56282); experiment: proximity labelling; C-terminally MAC3-tagged (ultraID) POLE2 variants in Flp-In T-REx 293 cells, tetracycline 24 h, 50 μM biotin 3 h; Strep-Tactin purification, mass spectrometry, SAINTexpress against GFP control
[5] = molecular target: C-terminally MAC3-tagged POLE2 S522A (human) (UniProt P56282); experiment: as above

binding [1] | binding [2] | binding [3] | binding [4] | binding [5] | Binder
binds | binds | binds |  |  | B1
 | binds | binds |  |  | B2
 | binds | binds |  |  | B3
no binding | binds |  | no binding | no binding | B4

No constants are given. Whether binding was seen depends on the method and setting. In cells and extracts the contact can be indirect. These calls come from enrichment with a bait or labelling near it, and not all partners need be listed. For some assays here: A no says only that the protein was not detected with the bait. Tags and fused reporters may be left off the sequences shown.
